Measured values: article PMC10928217
No constants are given. Whether binding was seen depends on the method and setting. Binding seen in cells or lysates may run through a third protein. Some results given as binding are weak or reduced against the parent protein; the word gives no strength. One block for each binder: values may come before it.

By UniProt entry, the sequences of proteins in these tests, tags left out.
UniProt D3Z822: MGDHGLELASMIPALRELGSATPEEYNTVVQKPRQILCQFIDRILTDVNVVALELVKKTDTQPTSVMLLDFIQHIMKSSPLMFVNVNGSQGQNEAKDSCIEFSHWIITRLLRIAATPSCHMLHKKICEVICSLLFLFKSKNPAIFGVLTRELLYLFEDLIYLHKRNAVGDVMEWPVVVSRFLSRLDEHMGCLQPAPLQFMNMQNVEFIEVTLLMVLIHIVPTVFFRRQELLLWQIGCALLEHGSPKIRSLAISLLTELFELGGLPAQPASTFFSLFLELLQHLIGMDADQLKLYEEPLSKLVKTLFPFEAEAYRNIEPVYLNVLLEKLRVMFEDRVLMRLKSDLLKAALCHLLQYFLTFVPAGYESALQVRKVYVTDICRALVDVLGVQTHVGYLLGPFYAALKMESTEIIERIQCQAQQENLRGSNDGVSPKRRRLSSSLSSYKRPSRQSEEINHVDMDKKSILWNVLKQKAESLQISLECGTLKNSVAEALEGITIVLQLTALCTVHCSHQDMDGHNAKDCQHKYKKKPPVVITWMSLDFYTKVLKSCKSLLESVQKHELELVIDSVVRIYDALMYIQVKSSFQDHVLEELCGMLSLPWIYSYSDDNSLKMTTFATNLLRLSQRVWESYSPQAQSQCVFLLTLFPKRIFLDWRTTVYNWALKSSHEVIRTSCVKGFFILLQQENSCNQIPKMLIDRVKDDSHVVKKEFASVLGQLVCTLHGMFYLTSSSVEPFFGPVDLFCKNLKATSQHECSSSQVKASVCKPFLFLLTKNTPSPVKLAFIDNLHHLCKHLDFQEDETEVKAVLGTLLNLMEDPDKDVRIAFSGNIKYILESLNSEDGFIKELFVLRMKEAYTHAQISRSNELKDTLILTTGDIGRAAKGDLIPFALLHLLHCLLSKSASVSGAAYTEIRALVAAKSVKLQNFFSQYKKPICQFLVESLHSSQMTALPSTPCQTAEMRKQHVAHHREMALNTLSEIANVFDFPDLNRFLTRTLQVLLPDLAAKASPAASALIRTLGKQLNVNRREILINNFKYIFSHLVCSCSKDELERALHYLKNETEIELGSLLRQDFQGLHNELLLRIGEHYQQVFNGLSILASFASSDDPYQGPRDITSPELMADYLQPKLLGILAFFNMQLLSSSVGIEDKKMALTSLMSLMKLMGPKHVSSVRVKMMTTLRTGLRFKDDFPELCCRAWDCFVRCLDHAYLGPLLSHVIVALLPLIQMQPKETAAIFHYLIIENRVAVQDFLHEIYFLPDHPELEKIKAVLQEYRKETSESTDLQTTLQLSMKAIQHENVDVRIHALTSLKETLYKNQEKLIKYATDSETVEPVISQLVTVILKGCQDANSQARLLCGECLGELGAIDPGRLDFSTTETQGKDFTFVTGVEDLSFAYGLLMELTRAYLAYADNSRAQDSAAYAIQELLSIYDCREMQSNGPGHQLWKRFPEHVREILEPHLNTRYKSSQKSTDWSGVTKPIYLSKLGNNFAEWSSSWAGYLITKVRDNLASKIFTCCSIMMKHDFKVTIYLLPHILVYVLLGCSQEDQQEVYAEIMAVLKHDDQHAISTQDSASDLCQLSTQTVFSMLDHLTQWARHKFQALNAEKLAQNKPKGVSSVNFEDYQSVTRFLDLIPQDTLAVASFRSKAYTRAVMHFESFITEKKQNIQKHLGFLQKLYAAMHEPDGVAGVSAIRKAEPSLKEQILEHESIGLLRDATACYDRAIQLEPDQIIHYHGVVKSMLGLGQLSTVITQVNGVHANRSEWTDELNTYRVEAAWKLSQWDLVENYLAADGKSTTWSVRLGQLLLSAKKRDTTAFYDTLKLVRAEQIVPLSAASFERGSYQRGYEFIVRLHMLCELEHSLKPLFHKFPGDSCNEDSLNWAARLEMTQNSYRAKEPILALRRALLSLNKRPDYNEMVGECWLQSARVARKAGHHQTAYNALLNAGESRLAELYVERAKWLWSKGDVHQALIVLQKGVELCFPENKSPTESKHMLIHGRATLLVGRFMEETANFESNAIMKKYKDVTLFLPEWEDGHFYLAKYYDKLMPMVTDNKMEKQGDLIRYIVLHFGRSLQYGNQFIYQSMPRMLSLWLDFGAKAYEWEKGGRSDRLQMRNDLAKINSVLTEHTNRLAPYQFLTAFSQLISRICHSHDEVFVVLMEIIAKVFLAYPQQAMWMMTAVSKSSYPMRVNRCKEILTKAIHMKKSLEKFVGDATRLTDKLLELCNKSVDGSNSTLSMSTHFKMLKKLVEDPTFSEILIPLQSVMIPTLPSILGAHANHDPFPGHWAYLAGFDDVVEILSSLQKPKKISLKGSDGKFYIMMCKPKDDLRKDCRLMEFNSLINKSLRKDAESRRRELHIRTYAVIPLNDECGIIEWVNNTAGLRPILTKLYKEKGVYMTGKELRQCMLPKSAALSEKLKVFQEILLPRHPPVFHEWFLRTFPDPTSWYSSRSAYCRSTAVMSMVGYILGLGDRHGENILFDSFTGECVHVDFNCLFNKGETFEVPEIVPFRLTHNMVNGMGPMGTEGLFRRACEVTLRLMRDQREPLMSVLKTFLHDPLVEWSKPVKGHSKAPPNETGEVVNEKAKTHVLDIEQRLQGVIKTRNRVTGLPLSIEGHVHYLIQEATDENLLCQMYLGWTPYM
UniProt Q13535: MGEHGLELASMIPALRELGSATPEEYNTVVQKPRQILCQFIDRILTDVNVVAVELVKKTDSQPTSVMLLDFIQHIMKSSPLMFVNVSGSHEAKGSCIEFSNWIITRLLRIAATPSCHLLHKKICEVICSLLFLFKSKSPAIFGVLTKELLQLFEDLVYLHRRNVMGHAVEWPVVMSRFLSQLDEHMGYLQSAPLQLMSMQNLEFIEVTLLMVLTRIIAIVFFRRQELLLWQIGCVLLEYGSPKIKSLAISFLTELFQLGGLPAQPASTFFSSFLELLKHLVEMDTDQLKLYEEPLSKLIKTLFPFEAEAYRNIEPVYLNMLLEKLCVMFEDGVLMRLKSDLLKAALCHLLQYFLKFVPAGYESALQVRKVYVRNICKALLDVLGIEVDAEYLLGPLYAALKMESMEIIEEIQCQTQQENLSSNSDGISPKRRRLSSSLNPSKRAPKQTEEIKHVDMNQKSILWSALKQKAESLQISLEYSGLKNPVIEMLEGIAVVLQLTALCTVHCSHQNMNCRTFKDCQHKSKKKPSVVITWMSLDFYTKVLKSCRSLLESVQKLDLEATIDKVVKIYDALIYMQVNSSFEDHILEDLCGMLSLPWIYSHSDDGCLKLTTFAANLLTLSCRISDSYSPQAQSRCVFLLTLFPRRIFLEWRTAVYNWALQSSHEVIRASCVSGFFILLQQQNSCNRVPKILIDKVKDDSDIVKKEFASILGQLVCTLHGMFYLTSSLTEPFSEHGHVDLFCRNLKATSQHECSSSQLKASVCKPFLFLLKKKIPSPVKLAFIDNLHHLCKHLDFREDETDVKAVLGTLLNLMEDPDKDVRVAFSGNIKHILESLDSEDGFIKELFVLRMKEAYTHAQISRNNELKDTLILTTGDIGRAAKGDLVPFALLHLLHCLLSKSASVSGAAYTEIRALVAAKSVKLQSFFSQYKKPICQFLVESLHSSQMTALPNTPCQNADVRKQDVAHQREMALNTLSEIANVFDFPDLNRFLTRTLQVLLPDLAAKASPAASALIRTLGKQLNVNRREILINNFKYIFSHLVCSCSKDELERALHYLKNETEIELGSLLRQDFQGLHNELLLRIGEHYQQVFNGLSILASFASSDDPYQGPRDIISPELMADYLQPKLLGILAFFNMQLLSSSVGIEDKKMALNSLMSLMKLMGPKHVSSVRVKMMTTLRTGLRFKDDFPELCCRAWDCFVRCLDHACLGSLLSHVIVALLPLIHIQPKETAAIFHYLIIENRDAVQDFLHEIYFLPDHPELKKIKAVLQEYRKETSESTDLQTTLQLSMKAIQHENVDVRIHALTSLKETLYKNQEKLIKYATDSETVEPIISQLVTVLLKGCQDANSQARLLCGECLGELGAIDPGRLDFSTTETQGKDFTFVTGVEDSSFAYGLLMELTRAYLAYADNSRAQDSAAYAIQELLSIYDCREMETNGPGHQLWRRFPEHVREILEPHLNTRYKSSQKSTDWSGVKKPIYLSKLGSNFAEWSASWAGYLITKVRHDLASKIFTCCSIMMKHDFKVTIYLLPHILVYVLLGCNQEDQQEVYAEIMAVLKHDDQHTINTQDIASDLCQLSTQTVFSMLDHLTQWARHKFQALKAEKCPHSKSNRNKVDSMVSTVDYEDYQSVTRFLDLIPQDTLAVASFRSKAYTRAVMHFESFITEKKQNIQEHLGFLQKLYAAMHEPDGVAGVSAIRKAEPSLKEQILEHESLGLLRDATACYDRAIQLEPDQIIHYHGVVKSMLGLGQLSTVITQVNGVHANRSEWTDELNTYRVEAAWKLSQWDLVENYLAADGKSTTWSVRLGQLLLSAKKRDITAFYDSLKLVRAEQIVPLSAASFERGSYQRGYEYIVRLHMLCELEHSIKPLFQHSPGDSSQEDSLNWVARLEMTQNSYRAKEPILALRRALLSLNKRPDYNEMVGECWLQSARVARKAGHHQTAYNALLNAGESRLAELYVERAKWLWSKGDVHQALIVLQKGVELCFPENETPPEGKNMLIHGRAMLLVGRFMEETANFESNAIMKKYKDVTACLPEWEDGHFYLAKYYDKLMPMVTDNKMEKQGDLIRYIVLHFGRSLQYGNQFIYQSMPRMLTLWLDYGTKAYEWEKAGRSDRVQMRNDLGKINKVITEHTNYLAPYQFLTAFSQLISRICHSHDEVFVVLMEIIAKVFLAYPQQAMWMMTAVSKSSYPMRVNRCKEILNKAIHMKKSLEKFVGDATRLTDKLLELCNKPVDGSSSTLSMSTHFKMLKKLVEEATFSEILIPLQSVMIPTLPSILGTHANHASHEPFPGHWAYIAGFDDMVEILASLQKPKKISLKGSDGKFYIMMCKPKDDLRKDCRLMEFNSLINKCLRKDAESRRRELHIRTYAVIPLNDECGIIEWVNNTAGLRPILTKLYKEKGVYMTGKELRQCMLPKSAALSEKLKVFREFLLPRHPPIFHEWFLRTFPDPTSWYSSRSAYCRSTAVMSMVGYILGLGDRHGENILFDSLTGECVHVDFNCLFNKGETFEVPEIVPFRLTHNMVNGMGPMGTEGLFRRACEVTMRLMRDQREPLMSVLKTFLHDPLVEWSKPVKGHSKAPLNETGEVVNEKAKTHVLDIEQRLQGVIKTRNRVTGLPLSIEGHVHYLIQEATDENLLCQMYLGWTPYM
UniProt P15927: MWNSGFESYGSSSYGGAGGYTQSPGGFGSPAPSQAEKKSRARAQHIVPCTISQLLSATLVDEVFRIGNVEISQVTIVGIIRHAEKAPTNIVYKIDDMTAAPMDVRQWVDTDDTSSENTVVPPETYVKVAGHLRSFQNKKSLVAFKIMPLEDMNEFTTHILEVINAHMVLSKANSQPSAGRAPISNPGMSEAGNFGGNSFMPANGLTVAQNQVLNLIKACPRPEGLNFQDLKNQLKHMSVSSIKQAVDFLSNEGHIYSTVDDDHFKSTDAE

Legend:
[1] = biological target: ATR serine/threonine kinase (ATR), rat, in adult retina (rat (endogenous in adult rat retina)) (UniProt D3Z822); test: co-IP; adult rat retina lysate (50 mM Tris-HCl, 50 mM NaCl, 1 mM MgCl2, 1 mM EDTA, 1% Triton X, 10% glycerol, pH 7.4); rabbit anti-NOL12 or rabbit anti-ATR, 4 °C overnight, Protein A + G beads; wash 150 mM NaCl, 0.1% NP-40; immunoblot
[2] = biological target: ATR serine/threonine kinase (ATR), human, in WERI-Rb1 cells (human (endogenous in WERI-Rb1)) (UniProt Q13535); test: co-IP; WERI-Rb1 cell lysate (50 mM Tris-HCl, 50 mM NaCl, 1 mM MgCl2, 1 mM EDTA, 1% Triton X, 10% glycerol, pH 7.4); rabbit anti-NOL12 or rabbit anti-ATR, 4 °C overnight, Protein A + G beads; wash 150 mM NaCl, 0.1% NP-40; immunoblot
[3] = biological target: RPA32, human, in WERI-Rb1 cells (human (endogenous in WERI-Rb1)) (UniProt P15927); test: as above

- binding [1]: binds
B1: Nucleolar protein 12 (NOL12), rat, in adult retina (protein, UniProt Q5D1Z3 1-216)
chain: MGRNKKKKRDGDDRRPRLILNFDEEKRREYLTGFHKRKVERKKAAIEEIKQRLKQEQKKLREERHQEYLKMLAEREEALEEADELERLVTAKTESVQYDHPNHTVTVTTVSDLDLSGARLLGLPLPEQGDQDGSQEEEVSSMEKPTKALPKKSKDPLLSQRISSLTATLHAHSRKKVKRKHPRRAQDSTKKPPSATRTSKTQRRRRMTGKARHNGE

- binding [2]: binds
- binding [3]: binds
B2: Nucleolar protein 12 (NOL12), human, in WERI-Rb1 cells (protein, UniProt Q9UGY1 1-213)
chain: MGRNKKKKRDGDDRRPRLVLSFDEEKRREYLTGFHKRKVERKKAAIEEIKQRLKEEQRKLREERHQEYLKMLAEREEALEEADELDRLVTAKTESVQYDHPNHTVTVTTISDLDLSGARLLGLTPPEGGAGDRSEEEASSTEKPTKALPRKSRDPLLSQRISSLTASLHAHSRKKVKRKHPRRAQDSKKPPRAPRTSKAQRRRLTGKARHSGE
